Reference: paper PMC11068563, “The MCU and MCUb amino-terminal domains tightly interact: mechanisms for low conductance assembly of the mitochondrial calcium uniporter complex” (iScience, 2024)
These are yes or no findings as the source states them, for the method shown. Some binding calls cover weakened binding; strength is not graded here.

The chains behind the UniProt entries cited, without tags or fusion partners. Residues count along the entry.
UniProt Q8NE86, residues 72-189: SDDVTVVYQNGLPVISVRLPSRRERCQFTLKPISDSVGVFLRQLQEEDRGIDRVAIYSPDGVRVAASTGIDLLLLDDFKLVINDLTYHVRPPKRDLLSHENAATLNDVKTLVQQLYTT

Tests used:
[1] = biological target: MCU amino-terminal domain (MCU-NTD), MCU residues 72-189 (human) (UniProt Q8NE86); assay: SEC-MALS; as a1 at 3 mg/mL, with 5 mM CaCl2; both purified
[2] = biological target: MCU amino-terminal domain (MCU-NTD), MCU residues 72-189 (human) (UniProt Q8NE86); assay: SEC-MALS; as a1 at 3 mg/mL, with 5 mM MgCl2; both purified
[3] = biological target: MCU amino-terminal domain (MCU-NTD), MCU residues 72-189 (human) (UniProt Q8NE86); assay: dynamic light scattering; MCUb-NTD, MCU-NTD and the mix at 67.5 uM total protein; buffer and temperature differ from the first DLS experiment; both purified
[4] = biological target: MCU amino-terminal domain (MCU-NTD), MCU residues 72-189 (human) (UniProt Q8NE86); assay: cross-linking; 1 mM BS-3, 90 min, 20 mM HEPES (pH 8.4), 150 mM NaCl, 1 mM DTT, ambient temperature; proteins at 67.5 uM, mix with 67.5 uM or 33.8 uM of each; SDS-PAGE, Coomassie; both purified
[5] = biological target: MCU amino-terminal domain (MCU-NTD), MCU residues 72-189 (human) (UniProt Q8NE86); assay: SEC-MALS; Superdex 200 Increase 10/300 GL, 100 uL injections, 20 mM Tris (pH 8.5), 150 mM NaCl, 1 mM DTT, 10°C; MCUb-NTD at 2, 3, 4 mg/mL, MCU-NTD at 3 mg/mL, mix of 3 mg/mL each (~1:1 molar); ~20x dilution on the column; fractions on SDS-PAGE; no divalent cations; both purified

binding [1]: binds | binding [2]: binds | binding [3]: binds | binding [4]: binds | binding [5]: binds
B1: MCUb amino-terminal domain (MCUb-NTD), MCUb residues 58-159 (domain or fragment, human, UniProt Q9NWR8 58-159, looked up)
chain: DEITVIYRHGLPLVTLTLPSRKERCQFVVKPMLSTVGSFLQDLQNEDKGIKTAAIFTADGNMISASTLMDILLMNDFKLVINKIAYDVQCPKREKPSNEHTA
notes: MCU dominant negative beta subunit (MCUb), Homo sapiens, GenBank NP_060388.2, residues 58-159 (amino-terminal domain); Cloned into pET-28a by NheI and XhoI; printed as 6xHis-MCUb_(58-159); theoretical monomer mass 12.0098 kDa and 107 expected backbone amides are printed, so a few vector residues probably remain after thrombin cleavage (surmise); also called MCUb_(58-159); 15N-MCUb-NTD; source: E. …
